PubChem BioAssay AID1053208 | Peter MacCallum Cancer Centre | 2014
Screen: 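Find knock-downs that sensitise mouse osteosarcoma cells to doxorubicin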 (primary screen). System: mouse osteosarcoma cells, early-passage culture from an engineered mouse model of fibroblastic bone tumour. Knock-down reagent: siRNA pool against mouse genes, 40 nM. Duration: about 120 h (48 h before drug, then 72 h with drug). Conditions: doxorubicin 100 nM for 72 h, roughly 30-40% inhibitory dose. Measurement: 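Luminescent ATP signal taken as viability with or without 100 nM doxorubicin for 72 h; mean of two wells set against non-targeting siRNA and turned into robust z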. Direction: viability z-score with doxorubicin: higher = more viable cells under doxorubicin; viability z-score without drug: higher = more viable cells with knock-down alone. Hit rule: 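a pool counts as active when its viability z-score with doxorubicin is -2 or below and its z-score without drug lies between -2 and 2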.
Shown is a random part of about 17,000 reagents tested. Of all reagents, 788 (4.7%) are marked active. 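Calls rest on z-score classes alone; an extra cut-off of viability at most 70% of control was not applied to them.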 Entries without a mark were called inactive. Not all columns of the deposit are shown. Reagent sequences are not shown.

Mga
- combined z-score class: no change with or without drug
- viability z-score with doxorubicin: -0.9
- viability z-score without drug: -0.51

Panx3
- combined z-score class: no change with or without drug
- viability z-score with doxorubicin: 0.56
- viability z-score without drug: 0.34

Ormdl1
- combined z-score class: low cell count with doxorubicin only (active)
- viability z-score with doxorubicin: -2.02
- viability z-score without drug: -0.51

Mettl27
- combined z-score class: no change with or without drug
- viability z-score with doxorubicin: -0.22
- viability z-score without drug: 0.51

Barhl1
- combined z-score class: no change with or without drug
- viability z-score with doxorubicin: 0.9
- viability z-score without drug: 0.17

Rab8b
- combined z-score class: no change with or without drug
- viability z-score with doxorubicin: -0.67
- viability z-score without drug: 0.67

Wfs1
- combined z-score class: no change with or without drug
- viability z-score with doxorubicin: -1.57
- viability z-score without drug: -0.51

Wwc2
- combined z-score class: no change with or without drug
- viability z-score with doxorubicin: 0.9
- viability z-score without drug: -0.84

Celf6
- combined z-score class: no change with or without drug
- viability z-score with doxorubicin: -1.46
- viability z-score without drug: -0.17

E030011O05Rik
- combined z-score class: no change with or without drug
- viability z-score with doxorubicin: 0.45
- viability z-score without drug: 1.52

Cd68
- combined z-score class: no change with or without drug
- viability z-score with doxorubicin: 0.22
- viability z-score without drug: -0.51

3 consecutive entries from above, quoted:
Barhl1
- combined z-score class: no change with or without drug
- viability z-score with doxorubicin: 0.9
- viability z-score without drug: 0.17

Rab8b
- combined z-score class: no change with or without drug
- viability z-score with doxorubicin: -0.67
- viability z-score without drug: 0.67

Wfs1
- combined z-score class: no change with or without drug
- viability z-score with doxorubicin: -1.57
- viability z-score without drug: -0.51

More results follow.
Tm2d3
- combined z-score class: no change with or without drug
- viability z-score with doxorubicin: 0
- viability z-score without drug: -0.84

Or8c9
- combined z-score class: no change with or without drug
- viability z-score with doxorubicin: 0.67
- viability z-score without drug: -0.17

Acbd3
- combined z-score class: no change with or without drug
- viability z-score with doxorubicin: 0.67
- viability z-score without drug: 0.34

Cpne6
- combined z-score class: no change with or without drug
- viability z-score with doxorubicin: 1.35
- viability z-score without drug: 1.52

Vmn2r-ps105
- combined z-score class: no change with or without drug
- viability z-score with doxorubicin: -0.22
- viability z-score without drug: -0.51

Cenpm
- combined z-score class: no change with or without drug
- viability z-score with doxorubicin: 0.34
- viability z-score without drug: 0.51

Tubb5
- combined z-score class: no change with or without drug
- viability z-score with doxorubicin: 0.67
- viability z-score without drug: -0.84

Gadd45gip1
- combined z-score class: no change with or without drug
- viability z-score with doxorubicin: 1.12
- viability z-score without drug: -0.17
